Measurements taken from patent publication US12338296B2, “Peptides and compounds that bind to elongation initiation factor 4E” (AGENCY FOR SCIENCE, TECHNOLOGY AND RESEARCH, priority 2019, dated 2025).
At least one compound was matched to its structure with a doubt left. Peptide text beside a SMILES is read from it.

The chains behind the UniProt entries cited, without tags or fusion partners.
UniProt P06730, whole entry: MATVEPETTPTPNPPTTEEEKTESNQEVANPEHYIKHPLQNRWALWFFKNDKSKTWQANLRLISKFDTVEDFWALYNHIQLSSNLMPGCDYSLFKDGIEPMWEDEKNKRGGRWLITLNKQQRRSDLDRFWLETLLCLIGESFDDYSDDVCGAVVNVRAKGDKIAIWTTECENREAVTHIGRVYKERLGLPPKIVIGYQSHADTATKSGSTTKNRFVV

Molecular target: T1, eIF4E (Homo sapiens, UniProt P06730)
T1 construct: made in house; Plasmid and cells were provided by Cyclacel Ltd., Dundee
Assay: Surface plasmon resonance Kd determination on immobilized eIF4E (Biacore T100, CM5 chip)
Conditions: SPR, 1:1 binding model, three separate titrations
Method: Surface Plasmon Resonance (for Structural Activity Relationship (SAR) Tables)
For stock peptide solutions, the compounds were dissolved in 100% DMSO to a concentration of 10 mM; further dilutions of the peptide stock solutions into DMSO and/or running buffer were performed immediately prior to analysis. Running buffer consisted of 10 mM Hepes pH 7.6, 0.15 M NaCl, and 0.1% Tween20. Stock/DMSO diluted peptide solutions were diluted into 1.03× running buffer to make a peptide solution with 3% DMSO final concentration. […] Surface Plasmon resonance experiments were performed on a Biacore T100 machine.
Pure eIF4E was immnobilized on a CM5 sensor chip. […]
Six buffer blanks were first injected to equilibrate the instrument fully and then a solvent correction curve was performed followed by a further two blank injections. […] Using a flow rate of 50 μl/min, compounds were injected for 60 s and dissociation was monitored for 180 s. […] Kds were determined using the BiaEvaluation software (Biacore) and calculated from both the response of the eIF4E coated CM5 chips at equilibrium and also kinetically from the dissociation and association phase data for each of the peptides. […] Each individual peptide Kd was determined from three separate titrations. […]
Kd were determined using surface plasmon resonance (SPR) as described in Methods.

Compound `CSCC[C@@H]1NC(=O)[C@H](CCC(=O)O)NC(=O)[C@@H](NC(=O)[C@H](C)N)CSSC[C@@H](C(=O)NCC(N)=O)NC(=O)[C@H](CC(=O)O)NC(=O)[C@H](CCC(N)=O)NC(=O)[C@H](Cc2ccccc2)NC(=O)[C@H](C)NC(=O)CNC1=O` [EE-2D] (HELM PEPTIDE1{A.C.E.M.G.A.F.Q.D.C.G.[am]}$PEPTIDE1,PEPTIDE1,2:R3-10:R3$$$V2.0) has a Kd of over 50 µM.
